The full ranking holds about 33,000 sequences; the median of “E-score (-0.5 to 0.5)” is about -0.016, and the highest 2% start at about 0.3. The list shows a part of the results.
Biological target: T1, Yer184c (UniProt P39961)
T1 sequence: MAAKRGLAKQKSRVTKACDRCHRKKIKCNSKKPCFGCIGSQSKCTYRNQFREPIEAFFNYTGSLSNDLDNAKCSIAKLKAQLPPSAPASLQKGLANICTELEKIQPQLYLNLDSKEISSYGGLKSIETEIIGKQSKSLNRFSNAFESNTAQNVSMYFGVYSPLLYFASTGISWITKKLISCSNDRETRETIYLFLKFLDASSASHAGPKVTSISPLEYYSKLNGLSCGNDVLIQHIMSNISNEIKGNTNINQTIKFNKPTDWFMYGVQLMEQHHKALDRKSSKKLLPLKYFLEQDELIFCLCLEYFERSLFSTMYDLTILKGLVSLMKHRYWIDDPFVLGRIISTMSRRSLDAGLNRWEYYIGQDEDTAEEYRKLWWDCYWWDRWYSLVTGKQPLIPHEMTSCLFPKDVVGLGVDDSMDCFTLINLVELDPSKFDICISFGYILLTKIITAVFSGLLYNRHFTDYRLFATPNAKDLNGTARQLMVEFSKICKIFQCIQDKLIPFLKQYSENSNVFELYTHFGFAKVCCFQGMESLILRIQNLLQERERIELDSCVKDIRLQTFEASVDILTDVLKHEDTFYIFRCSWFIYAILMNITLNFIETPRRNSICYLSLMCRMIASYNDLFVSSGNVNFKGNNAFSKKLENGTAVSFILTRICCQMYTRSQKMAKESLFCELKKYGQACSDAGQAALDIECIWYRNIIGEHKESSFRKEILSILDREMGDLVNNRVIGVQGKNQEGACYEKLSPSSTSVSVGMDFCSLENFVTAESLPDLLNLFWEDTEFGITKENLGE
Test: PBM E-score (8-mer binding enrichment) (E-score (-0.5 to 0.5)); higher = stronger / more preferred TF binding
Details: protein concentration: 100 nM; construct: GST-full length
In short: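 E-scores (a modified Wilcoxon-Mann-Whitney statistic) were assigned by the Universal PBM Analysis Suite to every ungapped eight-base word pooled with its reverse complement. The input came from universal all-10-mer Agilent arrays made double-stranded by primer extension and probed with GST-tagged yeast transcription factors at about 100-200 nM. Fluorescent anti-GST detected bound protein, and masliner normalised the scans.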

Sequence	PBM E-score
CCCTAGTC	-0.41
CCACCGTA	-0.0148
GAAGGCTC	-0.107
CTGACGCA	-0.25
CACATGAA	0.0129
ATAAGAAC	0.202
TCTTCGAA	0.0317
CTAAGAAC	0.0817
AACTTATA	0.188
ATCAGCGG	-0.00977
CAGCACGG	0.183
ACGAGTAG	-0.021
CTTCCGCA	0.068
ACATATCA	0.024
CTGGAAAG	-0.131
CGAGTGGC	-0.0808
CTATGGAA	0.168
ACCTTGGC	-0.154
CAAACATG	-0.0644
CTTGGTTC	0.183
AGCCAAAA	0.0812
ACGTCGTC	-0.0607
CACAATAC	0.0256
TGCGTCCA	-0.126
AGTTCGTA	0.109

Sequence	PBM E-score
CCTCTCAC	-0.15
CACAGAAA	0.165
CCCAAGTC	-0.223
CGGCATAA	0.273
GACTATGA	-0.147
CTCAGGGC	-0.0473
CTGCCTCC	-0.339
TTAACCAA	-0.0477
GAAACGCA	0.041
GAATACCA	0.0494
GTAGGAAC	0.0812
AAGCCGGG	0.246
TCCCTACA	-0.13
AAAGGGGC	-0.273
CGTTGTGA	0.0532
AAAGCCTA	-0.12
TCTCTTCA	0.133
TAGGTGAA	0.0169
ATGTGTTA	0.066
CTCCCCAG	-0.399
CTAGGGCA	-0.311
AGTCTCGC	-0.142
AACGGCAA	0.178
GCGACCAA	0.0217
CGCGTAAA	0.127

Sequence	PBM E-score
CATTCATA	0.186
ACCCTAAG	-0.129
CCTGCACA	-0.255
ATGCATAA	-0.0648
CCCGGTAC	0.0651
CTTGGTGC	-0.175
ATGCATCC	0.00412
GAATCCTA	0.152
AGTCCAAT	-0.049
TCAACACA	0.179
CTCAATAA	0.0747
GTAGTCCA	-0.154
CTCCTCAC	-0.189
GCGCGGCA	0.158
TACCGTAA	0.103
GCTATCGA	-0.102
AAAGGGTC	-0.125
AGGGCACG	-0.329
ACCCTCTA	-0.305
AACTGCGT	-0.00116
ACATGGAT	-0.0527
CATCTTTA	0.15
AAAATTAT	0.316
ATCCGGAA	0.418
AACGACAC	-0.186

Part of the list above, field by field:
TCAACACA
  PBM E-score: 0.179
TACCGTAA
  PBM E-score: 0.103
ATCCGGAA
  PBM E-score: 0.418
AACGACAC
  PBM E-score: -0.186

The listing continues:

Sequence	PBM E-score
ATAGTCCC	-0.267
CTTGTTTC	0.0564
GATGAACA	0.143
ATCTTCAT	0.0601
CCTCGTGC	0.0746
CCTCGGAA	0.28
CAAGCGAC	-0.208
GCTTAGCA	-0.0181
ACTCATAG	-0.0267
ATACGTTA	-0.0508
AACGATAG	0.0402
ATCAGAGC	-0.119
CTAGCCCC	-0.22
GCACTAGA	-0.138
GGGACTAC	-0.0414
CTTGGTAC	-0.0492
AATATGCC	-0.0491
CTGATTAA	0.221
CTTTTCAC	0.0979
CGAGCGGA	0.167
CAGTAATA	0.168
CAATGCAC	-0.0494
CCACAGTA	-0.1
ACGGGCAG	-0.0367
ATTTGTTA	0.16

Sequence	PBM E-score
GAGATTAA	0.0828
AGAGGCTC	-0.278
CATTAATG	0.0115
AGTTGATG	0.0893
CCTGGGTC	-0.0566
AAGTACAG	-0.182
AATCGTTC	0.0446
ATCTGAAG	-0.0528
AAATTGCT	0.0164
CGCAGCAA	-0.138
ACCCACAC	-0.0483
GGGCGCTA	-0.192
ATCCCAAG	0.00205
CGTCCAAG	-0.0418
ATCTTATC	0.0892
TGTCTAAA	0.0812
CATAGATG	-0.143
GGAGAGCA	-0.106
GAGGGCGC	-0.187
GACGCAGA	0.0207
GAGTTAAA	0.119
GGAAGGAC	-0.0211
ACAAGGCG	-0.0941
TCGCGCAA	0.148
TTAAATAA	0.163

Sequence	PBM E-score
CGTGGAGC	-0.025
CAGGAATG	-0.124
ATCCGTAA	0.149
CGCGCCTA	0.0946
GAGCAGAA	0.0139
TGAGTAAA	-0.169
ACTTGGAT	-0.031
GGATAGGA	-0.0966
AACTCGGG	0.107
AGATGTCG	-0.00904
ACCCGCGA	-0.0511
GGCAACCC	-0.0421
CATGGTCG	-0.0756
AGGCGGCA	-0.0565
CCTAAGAC	-0.303
CAACACTA	0.0674
AACACATT	0.0963
AGTTGTCG	0.0405
GAAATGGA	-0.212
ACTATGCT	0.103
AATATAGT	0.167
ATAATTGG	0.0686
ATATGAAA	0.213
TATCAGAA	0.216
TCCGACCA	0.145

Sequence	PBM E-score
CTGCAGTC	-0.217
ATAACCGG	0.154
AGACTATG	-0.196
ATGAGTTC	0.0584
GTATTATA	0.263
AAAAAAAT	0.164
TGGTAACA	-0.029
GAAAACGA	0.0502
CTCAGAGC	-0.251
AAATTACC	0.00841
AGAGTAGC	-0.166
GAGAAAAC	0.046
CCGTCTGA	-0.0122
CCGTTTGA	0.0488
ACTTAAGA	0.155
GTGCGGCA	0.119
ACAATAGC	-0.0638
TCAGGAGA	0.0784
CCGTAACG	-0.0339
GAGGTAAA	0.148
GAGGGAAC	-0.0368
ACGGTATA	0.0673
GGAGAGCC	-0.292
AACGTGTC	-0.125
CCGCTCAC	-0.124

In another format: results already given.

| Sequence | PBM E-score |
| --- | --- |
| ATCTTATC | 0.0892 |
| TGTCTAAA | 0.0812 |
| CATAGATG | -0.143 |
| GGAGAGCA | -0.106 |
| GAGGGCGC | -0.187 |
| GACGCAGA | 0.0207 |
| GAGTTAAA | 0.119 |

Remaining list, next part:

Sequence	PBM E-score
ATCCTGCC	-0.283
ACGTTGGG	-0.177
GCTTACAC	-0.0906
GGAACAAC	0.243
ATAGACGA	0.00012
CCATGAAG	0.111
GCGCGCCC	-0.161
GCGCACTA	-0.0674
AAGTGAAA	0.122
CTACAACA	-0.0277
ACTATTGC	0.0958
AGGATGTC	-0.0865
GAAACATA	0.13
CGATGACA	0.0958
CTGGCGGA	-0.254
CTAGCCCA	-0.218
CGCTCACA	-0.124
AGGACCTG	-0.174
AGTTCAGA	0.102
ATCAGCTA	-0.0273
CCTATAGG	-0.175
CTTGCTGA	-0.125
CACCGCCC	-0.13
CGCGAGTC	-0.07
CGAGTGTA	-0.0537

Sequence	PBM E-score
ACACGGAT	0.272
CTAGGACA	0.0564
ACAATACT	0.117
AAGCTTCA	0.0388
CTTAATCA	0.201
AACGTTGC	-0.0255
AGCAGCGA	0.00724
ACGACATA	-0.196
GCAAACCC	-0.122
GTAAGGGA	-0.114
AAACGGGT	0.032
AAAATTCC	0.239
ACTTGCCT	-0.151
CACGAAGC	-0.11
GATGCGAC	-0.114
GTTTCCCA	0.0693
CGCGGCAC	0.267
CCGAGGAC	0.0882
GAAACGTA	0.0378

Source: the supplement of paper PMC3334620
